Data taken from the supplement of paper PMC7666118.
This is one part of the list.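 The calls were made as follows: active = dose-dependent thermal stabilisation significant by F-test of dose-response against flat model at 10% FDR; inactive = not significant.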

The chains behind the UniProt entries cited, without tags or fusion partners. Where a name states a change or a piece, a line headed by the entry shows the natural chain unless it says otherwise.
UniProt O14733: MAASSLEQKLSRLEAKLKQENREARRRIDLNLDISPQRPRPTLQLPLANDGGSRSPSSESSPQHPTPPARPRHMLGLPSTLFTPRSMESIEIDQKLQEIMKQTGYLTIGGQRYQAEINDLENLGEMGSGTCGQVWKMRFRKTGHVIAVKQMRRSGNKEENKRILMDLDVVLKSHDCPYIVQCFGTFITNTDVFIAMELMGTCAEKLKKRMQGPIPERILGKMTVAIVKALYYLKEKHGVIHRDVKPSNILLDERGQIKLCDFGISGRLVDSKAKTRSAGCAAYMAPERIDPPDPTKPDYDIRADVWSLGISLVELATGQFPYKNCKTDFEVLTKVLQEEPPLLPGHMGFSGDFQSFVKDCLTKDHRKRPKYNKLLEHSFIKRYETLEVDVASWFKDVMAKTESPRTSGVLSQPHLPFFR
UniProt Q9Y4C4: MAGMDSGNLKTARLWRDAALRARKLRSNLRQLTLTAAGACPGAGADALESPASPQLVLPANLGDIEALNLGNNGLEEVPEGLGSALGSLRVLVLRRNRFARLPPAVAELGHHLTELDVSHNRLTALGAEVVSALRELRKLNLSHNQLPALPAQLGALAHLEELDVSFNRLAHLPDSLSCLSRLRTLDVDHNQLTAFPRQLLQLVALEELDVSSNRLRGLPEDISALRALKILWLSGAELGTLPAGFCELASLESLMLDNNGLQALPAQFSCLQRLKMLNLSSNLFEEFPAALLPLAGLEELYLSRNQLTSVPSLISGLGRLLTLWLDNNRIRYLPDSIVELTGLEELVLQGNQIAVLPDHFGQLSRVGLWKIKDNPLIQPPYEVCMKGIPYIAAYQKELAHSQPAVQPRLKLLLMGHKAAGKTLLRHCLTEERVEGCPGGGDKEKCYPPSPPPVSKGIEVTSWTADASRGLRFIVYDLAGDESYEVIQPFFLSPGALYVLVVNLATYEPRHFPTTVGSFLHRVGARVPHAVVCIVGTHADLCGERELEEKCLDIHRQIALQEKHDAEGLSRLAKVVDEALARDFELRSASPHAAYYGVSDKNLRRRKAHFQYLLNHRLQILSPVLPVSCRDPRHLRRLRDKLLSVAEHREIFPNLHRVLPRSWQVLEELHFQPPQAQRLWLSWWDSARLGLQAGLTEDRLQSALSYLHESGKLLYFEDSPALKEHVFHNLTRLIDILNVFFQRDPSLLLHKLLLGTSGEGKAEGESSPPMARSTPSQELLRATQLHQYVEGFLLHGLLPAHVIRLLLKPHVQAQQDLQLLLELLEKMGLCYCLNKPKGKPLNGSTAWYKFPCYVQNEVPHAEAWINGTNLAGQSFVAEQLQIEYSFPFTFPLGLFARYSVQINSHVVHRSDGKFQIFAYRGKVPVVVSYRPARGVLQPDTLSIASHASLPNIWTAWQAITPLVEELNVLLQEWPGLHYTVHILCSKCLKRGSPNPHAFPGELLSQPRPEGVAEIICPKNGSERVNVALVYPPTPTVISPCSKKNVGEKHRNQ
UniProt P25205: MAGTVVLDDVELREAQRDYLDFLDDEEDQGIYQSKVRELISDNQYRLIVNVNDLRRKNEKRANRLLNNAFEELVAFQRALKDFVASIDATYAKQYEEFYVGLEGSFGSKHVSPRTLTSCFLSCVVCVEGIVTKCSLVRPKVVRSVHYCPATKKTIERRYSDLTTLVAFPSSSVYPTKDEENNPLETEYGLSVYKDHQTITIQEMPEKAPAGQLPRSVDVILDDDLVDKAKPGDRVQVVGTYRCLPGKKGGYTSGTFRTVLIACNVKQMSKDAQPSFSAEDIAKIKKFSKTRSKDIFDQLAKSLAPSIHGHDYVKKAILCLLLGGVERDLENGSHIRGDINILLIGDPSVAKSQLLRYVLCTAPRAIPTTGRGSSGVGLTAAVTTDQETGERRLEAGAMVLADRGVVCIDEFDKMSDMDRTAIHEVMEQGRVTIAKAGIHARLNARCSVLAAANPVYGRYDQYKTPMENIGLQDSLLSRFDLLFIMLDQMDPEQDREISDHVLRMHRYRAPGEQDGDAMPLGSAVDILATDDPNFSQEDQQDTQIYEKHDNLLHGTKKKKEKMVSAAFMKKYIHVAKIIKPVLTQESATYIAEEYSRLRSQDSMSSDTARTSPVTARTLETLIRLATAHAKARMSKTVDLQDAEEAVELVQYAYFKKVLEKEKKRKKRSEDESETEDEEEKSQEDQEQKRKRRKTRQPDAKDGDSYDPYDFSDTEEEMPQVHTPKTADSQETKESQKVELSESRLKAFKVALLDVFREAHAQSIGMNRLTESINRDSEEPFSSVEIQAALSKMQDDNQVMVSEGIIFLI
UniProt Q5VWZ2: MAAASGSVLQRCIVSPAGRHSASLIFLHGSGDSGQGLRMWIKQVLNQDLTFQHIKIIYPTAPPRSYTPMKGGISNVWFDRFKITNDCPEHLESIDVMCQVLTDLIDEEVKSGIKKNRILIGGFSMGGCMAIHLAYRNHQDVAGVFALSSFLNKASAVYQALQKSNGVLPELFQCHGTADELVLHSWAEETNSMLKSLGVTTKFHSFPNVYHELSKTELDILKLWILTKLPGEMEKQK
UniProt O95983: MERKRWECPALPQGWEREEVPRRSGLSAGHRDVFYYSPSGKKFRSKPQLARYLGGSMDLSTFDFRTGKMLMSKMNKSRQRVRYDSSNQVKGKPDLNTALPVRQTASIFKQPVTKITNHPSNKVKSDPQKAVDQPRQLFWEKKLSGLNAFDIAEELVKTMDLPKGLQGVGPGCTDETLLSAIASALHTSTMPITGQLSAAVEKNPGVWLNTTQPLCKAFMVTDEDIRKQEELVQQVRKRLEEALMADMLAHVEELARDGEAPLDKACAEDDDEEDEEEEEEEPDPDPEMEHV
UniProt O94776: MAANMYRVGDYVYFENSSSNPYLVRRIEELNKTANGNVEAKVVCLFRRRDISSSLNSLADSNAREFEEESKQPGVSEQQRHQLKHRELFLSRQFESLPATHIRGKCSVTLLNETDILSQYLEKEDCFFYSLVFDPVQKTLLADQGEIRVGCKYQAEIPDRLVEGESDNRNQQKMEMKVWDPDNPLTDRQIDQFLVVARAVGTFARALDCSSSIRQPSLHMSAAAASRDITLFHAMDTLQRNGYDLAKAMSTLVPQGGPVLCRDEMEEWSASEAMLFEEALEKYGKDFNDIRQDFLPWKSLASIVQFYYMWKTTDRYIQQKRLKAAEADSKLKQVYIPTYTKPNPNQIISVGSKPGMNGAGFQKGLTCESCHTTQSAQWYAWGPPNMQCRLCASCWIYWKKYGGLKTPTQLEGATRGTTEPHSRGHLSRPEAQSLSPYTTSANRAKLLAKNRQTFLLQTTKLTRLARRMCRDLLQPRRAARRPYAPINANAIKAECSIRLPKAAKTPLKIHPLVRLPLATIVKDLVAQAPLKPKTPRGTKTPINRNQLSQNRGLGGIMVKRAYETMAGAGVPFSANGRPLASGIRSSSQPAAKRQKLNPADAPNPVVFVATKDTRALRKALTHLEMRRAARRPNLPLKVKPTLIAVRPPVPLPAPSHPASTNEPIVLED
UniProt Q5JRA6: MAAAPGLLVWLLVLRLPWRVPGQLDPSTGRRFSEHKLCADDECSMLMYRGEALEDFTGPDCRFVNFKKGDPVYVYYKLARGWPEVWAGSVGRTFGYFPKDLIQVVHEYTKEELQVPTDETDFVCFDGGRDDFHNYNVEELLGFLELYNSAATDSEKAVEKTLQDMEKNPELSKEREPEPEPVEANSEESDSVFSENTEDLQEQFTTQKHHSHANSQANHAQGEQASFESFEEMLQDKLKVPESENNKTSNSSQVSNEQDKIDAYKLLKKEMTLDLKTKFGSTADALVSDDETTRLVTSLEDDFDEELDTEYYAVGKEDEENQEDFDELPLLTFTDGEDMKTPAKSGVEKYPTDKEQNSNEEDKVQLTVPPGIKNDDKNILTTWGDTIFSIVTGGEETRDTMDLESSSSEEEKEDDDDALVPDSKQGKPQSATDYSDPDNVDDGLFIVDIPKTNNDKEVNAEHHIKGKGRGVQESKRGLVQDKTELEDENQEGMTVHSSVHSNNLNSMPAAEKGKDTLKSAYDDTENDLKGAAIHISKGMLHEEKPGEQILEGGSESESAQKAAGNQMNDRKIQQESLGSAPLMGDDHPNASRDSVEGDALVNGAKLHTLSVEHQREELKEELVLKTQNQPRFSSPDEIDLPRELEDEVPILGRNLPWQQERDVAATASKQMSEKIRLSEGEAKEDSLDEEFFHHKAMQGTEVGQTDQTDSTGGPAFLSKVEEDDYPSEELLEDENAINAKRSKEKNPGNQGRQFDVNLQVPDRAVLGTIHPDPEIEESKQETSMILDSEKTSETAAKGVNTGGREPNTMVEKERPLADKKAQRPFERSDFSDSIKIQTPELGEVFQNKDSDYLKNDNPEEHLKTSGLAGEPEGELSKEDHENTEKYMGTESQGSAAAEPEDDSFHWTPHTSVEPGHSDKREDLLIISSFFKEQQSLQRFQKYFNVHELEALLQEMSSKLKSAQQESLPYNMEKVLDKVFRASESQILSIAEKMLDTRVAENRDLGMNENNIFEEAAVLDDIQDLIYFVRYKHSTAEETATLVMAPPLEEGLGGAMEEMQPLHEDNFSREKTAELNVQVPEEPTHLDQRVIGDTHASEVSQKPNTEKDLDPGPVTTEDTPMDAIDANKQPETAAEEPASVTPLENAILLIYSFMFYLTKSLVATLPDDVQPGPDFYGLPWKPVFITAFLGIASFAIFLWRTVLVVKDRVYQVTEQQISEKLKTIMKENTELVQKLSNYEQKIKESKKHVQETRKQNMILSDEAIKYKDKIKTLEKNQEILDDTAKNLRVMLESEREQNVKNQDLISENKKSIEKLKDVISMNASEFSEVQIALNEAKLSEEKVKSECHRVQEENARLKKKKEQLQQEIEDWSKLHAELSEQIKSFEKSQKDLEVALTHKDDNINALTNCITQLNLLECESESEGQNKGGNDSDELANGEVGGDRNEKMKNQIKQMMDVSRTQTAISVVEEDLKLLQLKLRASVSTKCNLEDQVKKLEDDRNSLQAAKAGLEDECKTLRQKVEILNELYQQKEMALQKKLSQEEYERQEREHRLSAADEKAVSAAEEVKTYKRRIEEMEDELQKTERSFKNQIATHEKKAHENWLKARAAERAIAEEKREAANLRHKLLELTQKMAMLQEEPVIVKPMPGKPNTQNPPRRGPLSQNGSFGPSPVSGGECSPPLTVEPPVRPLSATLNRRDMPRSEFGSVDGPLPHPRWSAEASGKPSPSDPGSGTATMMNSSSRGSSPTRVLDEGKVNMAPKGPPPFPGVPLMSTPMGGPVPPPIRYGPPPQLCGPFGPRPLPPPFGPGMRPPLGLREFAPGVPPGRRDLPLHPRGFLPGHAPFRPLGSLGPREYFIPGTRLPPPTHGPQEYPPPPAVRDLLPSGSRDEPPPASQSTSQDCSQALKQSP
UniProt Q96II8: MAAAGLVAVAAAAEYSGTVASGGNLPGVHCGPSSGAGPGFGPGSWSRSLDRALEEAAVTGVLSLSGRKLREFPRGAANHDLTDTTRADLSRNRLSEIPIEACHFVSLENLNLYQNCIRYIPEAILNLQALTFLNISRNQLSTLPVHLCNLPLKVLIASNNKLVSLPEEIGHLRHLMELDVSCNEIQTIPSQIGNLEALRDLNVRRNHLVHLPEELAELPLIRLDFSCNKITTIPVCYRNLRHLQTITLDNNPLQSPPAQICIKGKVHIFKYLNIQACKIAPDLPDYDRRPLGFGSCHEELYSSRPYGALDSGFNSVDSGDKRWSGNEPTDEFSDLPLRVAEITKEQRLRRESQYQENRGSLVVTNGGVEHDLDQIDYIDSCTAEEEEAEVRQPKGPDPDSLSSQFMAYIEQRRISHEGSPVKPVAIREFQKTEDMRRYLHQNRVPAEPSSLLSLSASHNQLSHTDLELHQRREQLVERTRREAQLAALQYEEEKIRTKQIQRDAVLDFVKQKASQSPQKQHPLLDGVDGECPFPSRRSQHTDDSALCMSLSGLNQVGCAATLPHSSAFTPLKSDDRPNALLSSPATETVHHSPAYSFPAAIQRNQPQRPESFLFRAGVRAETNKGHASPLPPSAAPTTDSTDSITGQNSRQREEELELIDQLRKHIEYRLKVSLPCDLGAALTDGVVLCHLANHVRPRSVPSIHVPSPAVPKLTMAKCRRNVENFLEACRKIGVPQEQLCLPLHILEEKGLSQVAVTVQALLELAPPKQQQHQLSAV

Compound: Nc1nc2c(ncn2[C@@H]2O[C@H](COP(=O)(O)OP(=O)(O)OP(=O)(O)O)[C@@H](O)[C@H]2O)c(=O)[nH]1
Assay: dose-dependent thermal stabilisation call (2D-TPP, DLPTP, 10% FDR) (binary (1 = stabilised)); higher = stabilised by the compound
Settings: system: Jurkat gel-filtered lysate; concentration range 1-500 µM

dose-dependent thermal stabilisation call, active:
LRPPRC (UniProt P42704) 1, MAP2K7 (UniProt O14733) 1, MFHAS1 (UniProt Q9Y4C4) 1

dose-dependent thermal stabilisation call, inactive:
MCM3 (UniProt P25205) 0, LYPLAL1 (UniProt Q5VWZ2) 0, MBD3 (UniProt O95983) 0, MTA2 (UniProt O94776) 0, MIA3 (UniProt Q5JRA6) 0, LRCH3 (UniProt Q96II8) 0
